The text below walks through data of paper doi:10.1101/2025.06.21.660898.

These are yes or no findings as the source states them, for the method shown. In cells and extracts the contact can be indirect. Here binding means that the protein was enriched with, or labelled near, the bait; the list need not be complete. Sequences can lack the tags named with a protein.

In this assay the target is T1, ZCCHC4-FH (HA and Flag tagged full-length ZCCHC4), stably expressed in HeLa cells (human) (UniProt Q9H5U6).
T1 sequence: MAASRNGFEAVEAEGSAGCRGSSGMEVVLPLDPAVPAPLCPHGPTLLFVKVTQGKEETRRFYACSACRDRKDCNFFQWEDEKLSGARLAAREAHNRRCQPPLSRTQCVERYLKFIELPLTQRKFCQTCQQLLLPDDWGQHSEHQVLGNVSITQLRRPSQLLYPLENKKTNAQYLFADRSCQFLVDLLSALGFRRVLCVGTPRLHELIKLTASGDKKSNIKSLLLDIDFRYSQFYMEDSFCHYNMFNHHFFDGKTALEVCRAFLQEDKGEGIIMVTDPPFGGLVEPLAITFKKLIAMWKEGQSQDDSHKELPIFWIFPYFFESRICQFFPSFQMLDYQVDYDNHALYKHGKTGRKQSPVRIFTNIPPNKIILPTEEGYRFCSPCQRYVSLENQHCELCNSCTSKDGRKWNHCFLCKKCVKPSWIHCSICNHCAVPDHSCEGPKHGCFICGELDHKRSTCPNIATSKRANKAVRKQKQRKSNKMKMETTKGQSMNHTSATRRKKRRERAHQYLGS
Nature of the assay: affinity purification with mass spectrometry.

B1: PDCD4 (protein, UniProt Q53EL6 1-469)
chain: MDVENEQILNVNPADPDNLSDSLFSGDEENAGTEEIKNEINGNWISASSINEARINAKAKRRLRKNSSRDSGRGDSVSDSGSDALRSGLTVPTSPKGRLLDRRSRSGKGRGLPKKGGAGGKGVWGTPGQVYDVEEVDVKDPNYDDDQENCVYETVVLPLDERAFEKTLTPIIQEYFEHGDTNEVAEMLRDLNLGEMKSGVPVLAVSLALEGKASHREMTSKLLSDLCGTVMSTTDVEKSFDKLLKDLPELALDTPRAPQLVGQFIARAVGDGILCNTYIDSYKGTVDCVQARAALDKATVLLSMSKGGKRKDSVWGSGGGQQSVNHLVKEIDMLLKEYLLSGDISEAEHCLKELEVPHFHHELVYEAIIMVLESTGESTFKMILDLLKSLWKSSTITVDQMKRGYERIYNEIPDINLDVPHSYSVLERFVEECFQAGIISKQLRDLCPSRGRKRFVSEGDGGRLKPESY
Consider B1, for which the binding entry is on record as “binds”.
